PubChem BioAssay AID1487 (National Center for Advancing Translational Sciences (NCATS), 2009)
The whole screen tested about 200,000 compounds, of which about 25 (0.01%) were called active. The shares of active, inactive and inconclusive entries below differ from those in the screen. Calls follow the shape of the dose curve; as a rule, active = well fitted inhibition curve with a large enough effect in the signal ratio, with a control signal flat (not every such curve was filed as active); inconclusive = small, poorly fitted or top-dose-only effect, or effect the other way, or a change in a side signal; inactive = flat fitted curve, though single readings scatter; the % refers to the signal ratio. Potencies beside an inconclusive call are fits to weak or partial responses and may not hold up.

Experiment: qHTS Assay for Modulators of Lamin A Splicing
Details: HeLa LMNA splicing GFP/RFP minigene ratio, 48 h; ratio change, negative = inhibition: at 46.1 µM (top of the series) unless noted
Procedure, shortened: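 S3 HeLa cells stably expressing lamin A-EGFP splicing minigene plus DsRed2, 600 cells/well, 48 h compound exposure at 37C. Laser-scanning cytometry; analysed as GFP (500-530 nm)/RFP (575-640 nm) total intensity ratio; 0.5% DMSO vehicle.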
% is scaled to controls: 0 for no effect and ±100 for the full control effect; potency is read from the fitted curve at half-maximal effect.

SMILES | ratio change, negative = inhibition | Potency
CC(C)(C)NCC(=O)N/N=C/c1ccc(OCc2ccccc2)cc1 | inconclusive: -3.36% [at 46 µM] | –
COc1ccc(NC(=O)CSc2nnc(-c3cccs3)o2)cc1 | inactive | –
O=C(OCC(=O)N1CCN(S(=O)(=O)c2ccccc2)CC1)c1ccc([N+](=O)[O-])o1 | inactive | –
CCCCC[C@H](O)/C=C/[C@@H]1[C@@H](CCCCCCC(=O)O)[C@@H](O)C[C@H]1O | inconclusive: -7.52% | –
COc1ccc(C2Nc3cccc4cccc(c34)N2)cc1 | inconclusive: -28.5% [at 46 µM] | –
O=C(O)c1ccc(Cl)c(N2C(=O)Nc3ccccc3N2O)c1 | inconclusive: -9.28% [at 46 µM] | –
CCC1CSC(Nc2ccc(C(=O)/C=C/c3ccc(Br)cc3)cc2)=N1 (configuration not stated) | inconclusive: 242% | –
Fc1ccc(-c2nnc3sc(C4COc5ccccc5O4)nn23)cc1 (configuration not stated) | inconclusive: -22.8% | –
COc1cc(/C=N/NS(=O)(=O)c2ccc3ccccc3c2)ccc1OCCN1CCOCC1 | inconclusive: -11.4% | –
O=C(NCCc1ccc(Cl)cc1)C1CCC(CNc2nc(=S)[nH]c3ccccc23)CC1 (configuration not stated) | – | inconclusive: 35.5 µM [rising, single point]
Oc1ccc(CN2CCCc3ccccc32)c2cccnc12 | – | inconclusive: 35.5 µM [falling, single point]
O=C(O)CCc1nc(-c2ccccc2)no1 | inactive | –
CCOC(=O)c1c(NC(=O)Cn2nnc(-c3ccc(Cl)cc3)n2)sc(C)c1C | inactive | –
CCC(Sc1nnc(-c2ccc(C)c(Cl)c2)n1CC)C(=O)Nc1nccs1 (configuration not stated) | – | inconclusive: 10 µM [fluorescent, partial curve]
CC1=CN2C(=N)/C(=C/c3ccc([N+](=O)[O-])o3)C(=O)N=C2S1 | – | inconclusive: 22.4 µM [inhibitor, single point]
CCCCCC(=O)Nc1ccc(S(=O)(=O)Nc2nccc(C)n2)cc1 | inconclusive: 19.2% [at 9.22 µM] | –
CCOc1ccc(NC(=S)N(CCc2c(C)[nH]c3ccc(C)cc23)Cc2ccco2)cc1 | inconclusive: -61.7% | –
CCOC(=O)c1c(N)sc(N)c1C(=O)OCC | inactive | –
O=C(O)c1cccc(Cn2c(Cl)c(/C=N/NC(=O)c3ccccc3)sc2=O)c1 | inconclusive: 14.9% [at 0.0737 µM] | –
CCOC(=O)C1(C)/C(=N/Nc2ccccc2)C(=O)C(=O)N1c1ccccc1 (configuration not stated) | inactive | –
CCCCNC(=S)NNC(=O)c1csc(C)c1CC | inconclusive: 7.94% | –
COC(=O)c1ccc(/C=C(\C#N)C(=O)NC(C)c2ccccc2)cc1 (configuration not stated) | – | inconclusive: 35.5 µM [cytotoxic, single point]

2 compounds drawn at random from those above, as already listed:
SMILES | ratio change, negative = inhibition | Potency
Oc1ccc(CN2CCCc3ccccc32)c2cccnc12 | – | inconclusive: 35.5 µM [falling, single point]
CCOC(=O)C1(C)/C(=N/Nc2ccccc2)C(=O)C(=O)N1c1ccccc1 (configuration not stated) | inactive | –
